{
  "sequences": {"note": "Protein sequences, listed by entry. Tags and fused reporters are not part of them. Lines headed by an entry give the natural chain unless they say otherwise; changes in a name come on top.", "UniProt P18054": "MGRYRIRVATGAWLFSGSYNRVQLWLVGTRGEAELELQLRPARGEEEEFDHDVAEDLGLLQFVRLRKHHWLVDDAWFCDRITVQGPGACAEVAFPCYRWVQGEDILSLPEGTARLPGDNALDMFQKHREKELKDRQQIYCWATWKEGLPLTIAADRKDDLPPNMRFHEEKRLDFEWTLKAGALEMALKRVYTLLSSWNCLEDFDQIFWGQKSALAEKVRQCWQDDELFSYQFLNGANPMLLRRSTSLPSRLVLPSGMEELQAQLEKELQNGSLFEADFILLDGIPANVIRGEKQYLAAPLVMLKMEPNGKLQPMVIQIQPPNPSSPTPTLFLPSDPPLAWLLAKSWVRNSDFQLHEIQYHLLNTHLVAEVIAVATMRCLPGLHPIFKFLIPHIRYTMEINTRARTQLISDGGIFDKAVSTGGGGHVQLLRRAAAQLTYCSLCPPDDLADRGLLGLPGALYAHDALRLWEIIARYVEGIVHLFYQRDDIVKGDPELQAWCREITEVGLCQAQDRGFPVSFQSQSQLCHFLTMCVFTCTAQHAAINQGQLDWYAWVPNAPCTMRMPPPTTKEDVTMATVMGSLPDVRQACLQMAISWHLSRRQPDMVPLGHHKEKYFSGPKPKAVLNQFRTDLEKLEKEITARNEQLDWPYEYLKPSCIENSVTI"},
  "source": "PubChem BioAssay AID1671190",
  "about": "(National Center for Advancing Translational Sciences (NCATS), 2021)",
  "note": "The whole screen tested about 580,000 compounds, of which about 6,100 (1.1%) were called active. Inconclusive means that the source gave no clear call. Such entries were picked first, then a sample of the others. Calls come from the whole dose curve; as a rule, active = well fitted inhibition curve with a large enough effect; inconclusive = small, poorly fitted or top-dose-only effect, or another doubt; inactive = no such curve, though single readings can be large or run the other way. Potencies beside an inconclusive call are fits to weak or partial responses and may not hold up. % is set by controls: 0 for no effect and ±100 for the full control effect; potency is the fitted concentration of half-maximal effect.",
  "data": [
    {"molecular_target": "Polyunsaturated fatty acid lipoxygenase ALOX12 (Homo sapiens) (UniProt P18054)", "test": "Primary qHTS assay for inhibitors of human arachidonate 12S-lipoxygenase (ALOX12): Round 2", "conditions": "purified 12hLO, xylenol orange hydroperoxide absorbance; activity change, negative = inhibition: at 108 µM (top of the series) unless noted", "procedure,_shortened": "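Hydroperoxide product was detected by ferrous iron/xylenol orange as the 573 to 405 nm absorbance ratio. Arachidonic acid at 40 uM (final) was turned over for 30 min at room temperature by 150 nM human 12hLO, pH 7.0 Hepes buffer, after 15 min compound preincubation.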", "values": [
      {"smiles": "CCN(C(=O)c1oc2c(c1C)C(=O)CC(C)(C)C2)c1ccccc1", "activity change, negative = inhibition": "inactive: -22.2%"},
      {"smiles": "O=C(CCc1nc2ccc(Cl)cc2[nH]1)N1CCc2nc3cc(-c4ccccc4)[nH]n3c(=O)c2C1", "activity change, negative = inhibition": "inactive: -7.06%"},
      {"smiles": "Cc1cccc(-n2c(N)cc(=O)nc2SCC(=O)Nc2ccc(F)cc2)c1C", "Potency": "inconclusive: 100 µM [inhibitor, single point]"},
      {"smiles": "Cc1[nH]c(=S)c(C#N)c(C)c1Cc1ccccc1", "Potency": "inconclusive: 44.7 µM [inhibitor, partial curve, poor fit]"},
      {"smiles": "Cn1cc(Cl)c(C(=O)Nc2nccs2)n1", "activity change, negative = inhibition": "inactive: -12%"},
      {"smiles": "COC(=O)C1=CC(=O)C=C(OC)[C@@]12Oc1cc(C)cc(OC)c1C2=O", "Potency": "active: 4.47 µM"},
      {"smiles": "Cn1c(SCC(=O)Nc2nccs2)nnc1C1CC1", "Potency": "inconclusive: 28.2 µM [inhibitor, partial curve, poor fit]"},
      {"smiles": "O=C(O)C(c1c[nH]c2cccc(Cl)c12)N1CCN(Cc2cccc(Cl)c2)CC1", "note": "(stereo unspecified)", "Potency": "inconclusive: 25.1 µM [inhibitor, partial curve]"},
      {"smiles": "CC(C)n1nc(OC(C)(C)C(=O)NCCOc2ccccc2)c2cc(CN3CCOCC3)ccc21", "activity change, negative = inhibition": "inactive: 10.2%"},
      {"smiles": "COC(=O)C1C(=O)C2=C(CC1C)NC(=O)CC2c1ccccc1", "note": "(stereo unspecified)", "Potency": "inconclusive: 50.1 µM [inhibitor, partial curve, poor fit]"},
      {"smiles": "CCOC(=O)[C@]12CCCC=C1N(Cc1ccc(Cl)cc1Cl)C(=O)[C@H](CC(=O)NCc1ccc(OC)c(OC)c1)C2", "Potency": "inconclusive: 112 µM [inhibitor, single point]"},
      {"smiles": "O=c1c(Br)c(Br)cnn1-c1ccccc1", "activity change, negative = inhibition": "inactive: -10.7%"},
      {"smiles": "Cc1noc(C)c1S(=O)(=O)N1CCCN(Cc2ccncc2)C(c2ccccc2)CC(=O)NCC1", "note": "(stereo unspecified)", "activity change, negative = inhibition": "inactive: 48.8%"},
      {"smiles": "CC1=C(C(=O)Nc2ccc(C)cc2C)C(c2ccc(C(C)C)cc2)NC(=S)N1", "note": "(stereo unspecified)", "Potency": "inconclusive: 44.7 µM [inhibitor, partial curve, poor fit]"},
      {"smiles": "COc1ccc(NC(=O)c2ccc(-c3ccc(-c4noc(C)n4)cc3C)cc2)cc1N1CCN(C)CC1", "Potency": "inconclusive: 89.1 µM [inhibitor, single point]"},
      {"smiles": "COc1ccc(C2/C(=C(/O)c3ccc4c(c3)CC(C)O4)C(=O)C(=O)N2CCN2CCOCC2)cc1OC", "note": "(stereo unspecified)", "Potency": "inconclusive: 6.31 µM [inhibitor, partial curve, poor fit]"},
      {"smiles": "Cn1cnc([N+](=O)[O-])c1Oc1cccc(O)c1", "activity change, negative = inhibition": "inactive: -16%"},
      {"smiles": "COC(=O)[C@@]1(Cc2ccc(F)cc2)[C@H]2c3cc(C(=O)N(C)C)n(Cc4ccc(C)o4)c3C[C@H]2CN1C(=O)c1ccccc1", "Potency": "inconclusive: 50.1 µM [inhibitor, partial curve, poor fit]"},
      {"smiles": "Cc1c(CCO)c(=O)n(-c2ccccc2)n1S(=O)(=O)c1c(Cl)cc(Cl)cc1Cl", "Potency": "inconclusive: 50.1 µM [inhibitor, partial curve, poor fit]"},
      {"smiles": "CN(C(=O)c1cccc(NC(=O)Cc2cccc(NC(=O)C3CCN(C(=O)C4CCCCC4)CC3)c2)c1)C1CCC1", "Potency": "inconclusive: 44.7 µM [inhibitor, partial curve, poor fit]"},
      {"smiles": "COc1cccc(OCc2ccc(Cl)cc2)c1C#N", "Potency": "inconclusive: 89.1 µM [inhibitor, partial curve, poor fit]"},
      {"smiles": "O=C(c1ccccc1)N1CCC(Cc2noc(C3CC3)n2)C1", "note": "(stereo unspecified)", "activity change, negative = inhibition": "inactive: 56.2%"},
      {"smiles": "Cc1nn(Cc2ccccc2)c(C)c1CNC(=O)[C@H](C)N=C1NS(=O)(=O)c2ccccc21", "Potency": "inconclusive: 100 µM [inhibitor, single point]"},
      {"smiles": "CCOc1ccc(/C(O)=C2/C(=O)C(=O)N(c3ccccn3)C2c2ccc(C)cc2)c(C)c1", "note": "(stereo unspecified)", "Potency": "inconclusive: 3.16 µM [inhibitor, full curve, poor fit]"},
      {"smiles": "CCN1CCN(Cc2ccc(NC(=O)c3ccc(C)c(NC(=O)c4cccc5[nH]ccc45)c3)cc2C(F)(F)F)CC1", "Potency": "inconclusive: 44.7 µM [inhibitor, partial curve]"},
      {"smiles": "COc1cc(/C=N/N=C2/SCC(=O)N2c2ccc(O)cc2)ccc1O", "activity change, negative = inhibition": "inactive: 2.23%"},
      {"smiles": "CC(=O)NC1Sc2ccccc2N=C1c1ccccc1", "note": "(stereo unspecified)", "Potency": "inconclusive: 28.2 µM [inhibitor, partial curve, poor fit]"},
      {"smiles": "Fc1ccc(C2Cn3cnc(-c4nc(-c5ccc6c(c5)OCO6)no4)c3CO2)cc1", "note": "(stereo unspecified)", "Potency": "inconclusive: 1.78 µM [inhibitor, full curve]"},
      {"smiles": "Cc1ccc(/C=C/C(=O)O)cc1S(=O)(=O)NCCCO", "activity change, negative = inhibition": "inactive: 181%"},
      {"smiles": "Cc1ccc(-c2ncc(C(=O)Nc3ccc(F)c(F)c3)c(-c3ccncc3)n2)cc1", "Potency": "inconclusive: 10 µM [inhibitor, full curve, poor fit]"},
      {"smiles": "COc1ccc(Br)cc1/C(C)=N/NC1=NCCN1", "activity change, negative = inhibition": "inactive: 0%"},
      {"smiles": "O=c1[nH]c2ccccc2nc1/C=C/c1ccc(F)cc1", "Potency": "inconclusive: 126 µM [inhibitor, single point]"},
      {"smiles": "Cc1ccccc1-c1[nH]nc2ncc(-c3ccsc3)nc12", "activity change, negative = inhibition": "inactive: 16.5% [at 176 µM]"},
      {"smiles": "Cc1c(C(=O)N2CCN(c3ccc(F)cc3)CC2)sc2nc3n(c(=O)c12)CCC3", "Potency": "inactive"},
      {"smiles": "Cc1ccc2nc(C(C)(C)C)c(Cc3cccc(Cl)c3)n2c1", "Potency": "inconclusive: 44.7 µM [inhibitor, partial curve, poor fit]"},
      {"smiles": "CC1=C[C@@H](CN2C(=O)C(C)=C(C)C2=O)[C@H](C(C)C)C[C@H]1Cc1nc2ccccc2[nH]1", "activity change, negative = inhibition": "inactive: -15.4% [at 176 µM]"},
      {"smiles": "CCCCS(=O)(=O)c1oc(-c2cccs2)nc1S(=O)(=O)c1ccc(F)cc1", "activity change, negative = inhibition": "inactive: -13.9%"},
      {"smiles": "CNC(=O)[C@@H](c1ccc(Cl)cc1)N1CCC[C@H]1C(=O)NCC1CC1", "Potency": "inconclusive: 11.2 µM [inhibitor, partial curve, poor fit]"},
      {"smiles": "Cc1cc(N(CCO)CCO)n2nc(Cc3ccc(Cl)cc3)nc2n1", "Potency": "inconclusive: 5.01 µM [inhibitor, full curve, poor fit]"},
      {"smiles": "COCCNC(=O)COc1ncnc2ccc(Br)cc12", "Potency": "inconclusive: 141 µM [inhibitor, single point]"},
      {"smiles": "COc1ccc2cc(CO)n(C)c2c1", "Potency": "inconclusive: 44.7 µM [inhibitor, partial curve, poor fit]"},
      {"smiles": "O=C1Nc2ccccc2CC12CCCN2Cc1ccc(F)cc1", "note": "(stereo unspecified)", "Potency": "inconclusive: 10 µM [inhibitor, full curve, poor fit]"},
      {"smiles": "CCCCOc1cccc(C2C(C(=O)c3ccc(C)o3)=C(O)C(=O)N2Cc2ccco2)c1", "note": "(stereo unspecified)", "Potency": "inconclusive: 3.16 µM [inhibitor, full curve, poor fit]"},
      {"smiles": "CCOc1ccc(CNC(=O)c2cc3n(n2)CC(C)(C(=O)NC2CCCC2)N(CC)C3=O)cc1OC", "note": "(stereo unspecified)", "Potency": "inconclusive: 112 µM [inhibitor, partial curve, poor fit]"},
      {"smiles": "COC(=O)c1ccc(NC(=O)C2CC3CCC2C3)cc1", "note": "(stereo unspecified)", "activity change, negative = inhibition": "inactive: 343%"},
      {"smiles": "COc1ccc(C(=O)/C=C/NCc2ccc(F)cc2)cc1OC", "Potency": "inconclusive: 39.8 µM [inhibitor, partial curve, poor fit]"},
      {"smiles": "COc1cccc(C(NC(=O)c2cc(C(C)=O)c[nH]2)c2nccn2C)c1", "note": "(stereo unspecified)", "Potency": "inconclusive: 56.2 µM [inhibitor, partial curve, poor fit]"},
      {"smiles": "CCOC(CNC(=O)c1ccc(N2CCc3ccccc32)c([N+](=O)[O-])c1)OCC", "activity change, negative = inhibition": "inactive: 5.79%"},
      {"smiles": "COc1ccc(NC(=O)COc2ncnc3ccccc23)c([N+](=O)[O-])c1", "activity change, negative = inhibition": "inactive: -5.12%"},
      {"smiles": "CCCCn1nnnc1C(c1ccccc1)N1CCN(c2ncccc2C(F)(F)F)CC1", "note": "(stereo unspecified)", "Potency": "inconclusive: 35.5 µM [inhibitor, partial curve]"},
      {"smiles": "O=C(NCCNc1ncccn1)NCCNc1ncccn1", "activity change, negative = inhibition": "inactive: -24.1%"},
      {"smiles": "O=C(CCc1c[nH]c2ccccc12)Nc1ccc(N2CCCCC2)cc1", "Potency": "inconclusive: 89.1 µM [inhibitor, single point]"},
      {"smiles": "C#CCOCCOCCOCCNc1nc(N2CCOCC2)nc(N2CCN(C(=O)[C@H](CCCCN)n3cc([C@@H](N)CO)nn3)CC2)n1", "activity change, negative = inhibition": "inactive: -22.8%"},
      {"smiles": "O=C(NCCc1cccc2cccnc12)NC1CCN(CC2CCCCC2)CC1", "activity change, negative = inhibition": "inactive: -9.37%"},
      {"smiles": "N#Cc1c(Nc2ccc(Cl)cc2)s[nH]c1=O", "Potency": "inconclusive: 112 µM [inhibitor, single point]"},
      {"smiles": "CC(C)C(=O)Nc1nnc(SCC(=O)NCC2CCCO2)s1", "note": "(stereo unspecified)", "activity change, negative = inhibition": "inactive: -3.58%"},
      {"smiles": "O=C(Oc1cccc(/C=N/Nc2nc(Nc3ccccc3)nc(N3CCOCC3)n2)c1)c1ccco1", "Potency": "inconclusive: 3.55 µM [inhibitor, full curve, poor fit]"},
      {"smiles": "O=C(N/N=C/c1cc([N+](=O)[O-])ccc1O)c1cccc(NC(=O)c2cccc(Cl)c2)c1", "Potency": "inconclusive: 50.1 µM [inhibitor, partial curve, poor fit]"},
      {"smiles": "CCOC(=O)c1c(C)[nH]c(C(=O)OCc2ccc(C(=O)OC)cc2)c1C", "Potency": "inconclusive: 39.8 µM [inhibitor, single point]"},
      {"smiles": "C=CCOc1ccccc1C(=O)Nc1cccc(C#N)c1", "Potency": "inconclusive: 50.1 µM [inhibitor, partial curve, poor fit]"},
      {"smiles": "N#C/C(=C\\c1coc2ccccc2c1=O)C(N)=S", "Potency": "inconclusive: 31.6 µM [inhibitor, partial curve, poor fit]"},
      {"smiles": "Cc1cc(C)cc(OCC(=O)Nc2ccc(N3CCN(C(=O)c4ccco4)CC3)cc2)c1", "activity change, negative = inhibition": "inactive: 0.0916% [at 57.4 µM]"},
      {"smiles": "O=C(NCC(=O)N1CCN(C(c2ccccc2)c2ccccc2)CC1)c1ccccc1F", "activity change, negative = inhibition": "inactive: -12.2%"},
      {"smiles": "CN1/C(=C\\C=C2\\N=C(c3ccc(F)cc3)OC2=O)C(C)(C)c2ccccc21", "Potency": "inconclusive: 3.98 µM [inhibitor, full curve, poor fit]"},
      {"smiles": "Cn1cc(-c2cccc(CO)c2)c2nc(COc3ccc(Cl)cc3)cn2c1=O", "activity change, negative = inhibition": "inactive: 7.91% [at 176 µM]"},
      {"smiles": "CCOC(=O)CSc1nc2c(c(=O)[nH]c(=O)n2C)n1Cc1cccc(Br)c1", "Potency": "inconclusive: 12.6 µM [inhibitor, partial curve, poor fit]"}
    ]}
  ]
}
